Measurements published in patent US20260284208A1, “SYSTEM” (Oxford University Innovation Limited, priority 2023, published 2026).
Further values from the same series stand in other lists.

System: library of 8,380 IKZF3 degrons (ZF-eGFP/mCherry reporter) in Jurkat cells
Test: Pooled library screen (FACS, NGS, limma voom LogFC of positive vs negative read counts)
Type: cell-based, human
Protocol: A library of 8,380 IKZF3 degrons was cloned into pLVX-Sprout to create the eGFP/mCherry protein degradation reporter plasmid pool. A lentivirus pool was then generated using the Lenti-X lentiviral vector production method.
Jurkat cells were transduced at a multiplicity of infection of <0.3 with the lentivirus vector library in order to maximise the number of cells with a single integration. Transductions were carried out in 6 well TC-treated cell culture dishes (Falcon) with 3×10^6 cells per well. Cells were incubated for 2 days at 37° C. and 5% CO2 before the supernatant was removed and replaced with fresh media. 6 days post-transduction, mCherry+ cells were isolated via FACS using the FACS Aria Fusion (BD) in a buffer containing PBS (Gibco), 2 mM EDTA (Gibco), 25 mM HEPES (Sigma) and 1% BSA (Sigma). 8 days later, cells were treated with DMSO or a thalidomide analog for 18 hours at 37° C. and 5% CO2. mCherry+GFPlow and NOT(mCherry+GFPlow) cells were sorted by FACS using the FACS Aria Fusion (BD). DMSO treated cells were used to set the mCherry+GFPlow gate and dead cells were excluded from sorting by staining cells with 1 μg/mL DAPI (ThermoFisher). gDNA was isolated using the Maxwell RSC 48 (Promega). gDNA from cells that were unsorted and untreated were also isolated to determine the library representation on the day of compound treatment. Throughout the screen >600× coverage of the library was maintained. 3 biological replicates were carried out with a new transduction taking place each time.
A two-step PCR was used where the first PCR (PCR1) amplified the integrated degron sequence from gDNA and the second PCR (PCR2) added Illumina adaptors and barcodes to permit multiplexing. See Supp F for PCR1 and PCR2 primers. Q5 Hot Start High-Fidelity 2× Master Mix (New England Biolabs) was used for both PCRs. Sufficient gDNA was amplified in PCR1 in order to maintain >600× coverage and amplicons were purified using solid phase reversible immobilization (SPRI) beads (Beckman Coulter). Purified PCR1 products were analysed on the Tapestation 4200 (Agilent) to confirm purity prior to proceeding to PCR2. Sufficient PCR1 product was amplified in PCR2 in order to maintain >600× coverage and amplicons were run on a 2% agarose TAE gel. Target bands were excised and purified using the NucleoSpin Gel and PCR Clean-up Kit (Machery Nagel). Amplicons were analysed on the Tapestation 4200 and quantified using Qubit dsDNA HS kit (ThermoFisher). PCR products were pooled and sequenced as paired-reads on the NovaSeq (Illumina) using a SP2 200 cycles kit (Illumina).
Count distributions, percentage of read mapping, library coverage and replicate correlation per sample were assessed for QC purposes.
To carry out the library screen, we used the same plasmid construct as in our earlier flow cytometry assays, but pooling all 8,380 mutants together into one Jurkat population, ensuring a copy number of one plasmid per cell (FIG. 4B). […] These GFP-negative cells were then separated from the remaining GFP-positive population using fluorescence activated cell sorting (FACS). These two populations were then sequenced and the relative abundance of every mutant in both populations compared to provide a log FC value for each mutant sequence. This value indicated how frequently a sequence is observed in the GFP-negative population relative to the GFP-positive population, and therefore how effective a degron it is for that particular IMID compound.

**Q.** With `O=C1CCC(N2C(=O)c3ccc(N4CCOCC4)cc3C2=O)C(=O)N1` (stereo not shown) [B03] as the molecule, how does the B03_logFC (Degron-ID 4208, SEQ ID NO 3849, 46F_47W_49N_50I_52G_53A_54K_55F_67L) read?
**A.** 2.925

**Q.** And the B03_logFC (Degron-ID 4214, SEQ ID NO 3655, 46F_47W_49N_50I_52G_53A_54R_55F_67L_)?
**A.** 3.336

**Q.** What about the B03_logFC (Degron-ID 4240, SEQ ID NO 3902, 46F_47W_49N_50V_52G_53A_54A_55F_67L) of the same molecule?
**A.** 2.847

**Q.** And the B03_logFC (Degron-ID 4241, SEQ ID NO 3875, 46F_47W_49N_50V_52G_53A_54C_55F_67L)?
**A.** 2.891

**Q.** And the B03_logFC (Degron-ID 4246, SEQ ID NO 3820, 46F_47W_49N_50V_52G_53A_54H_55F_67L_)?
**A.** 2.97

**Q.** And the B03_logFC (Degron-ID 4248, SEQ ID NO 4283, 46F_47W_49N_50V_52G_53A_54K_55F_67L_)?
**A.** 2.246

**Q.** What about the B03_logFC (Degron-ID 4253, SEQ ID NO 3729, 46F_47W_49N_50V_52G_53A_54Q_55F_67L_) of the same molecule?
**A.** 3.156

**Q.** What about the B03_logFC (Degron-ID 4254, SEQ ID NO 3830, 46F_47W_49N_50V_52G_53A_54R_55F_67L_) of the same molecule?
**A.** 2.957

**Q.** And the B03_logFC (Degron-ID 4255, SEQ ID NO 3799, 46F_47W_49N_50V_52G_53A_54S_55F_67L_)?
**A.** 3.009

**Q.** And the B03_logFC (Degron-ID 4257, SEQ ID NO 4386, 46F_47W_49N_50V_52G_53A_54V_55F_67L_)?
**A.** 2.059

**Q.** What about the B03_logFC (Degron-ID 4260, SEQ ID NO 3666, 46F_47W_49P_50I_52G_53A_54A_55F_67L_) of the same molecule?
**A.** 3.303

**Q.** What about the B03_logFC (Degron-ID 4261, SEQ ID NO 3665, 46F_47W_49P_50I_52G_53A_54C_55F_67L_) of the same molecule?
**A.** 3.308

**Q.** What about the B03_logFC (Degron-ID 4264, SEQ ID NO 3805, 46F_47W_49P_50I_52G_53A_54F_55F_67L_) of the same molecule?
**A.** 3

**Q.** What about the B03_logFC (Degron-ID 4272, SEQ ID NO 3650, 46F_47W_49P_50I_52G_53A_54P_55F_67L_) of the same molecule?
**A.** 3.35

**Q.** And the B03_logFC (Degron-ID 4277, SEQ ID NO 3850, 46F_47W_49P_50I_52G_53A_54V_55F_67L)?
**A.** 2.922

**Q.** And the B03_logFC (Degron-ID 4281, SEQ ID NO 4290, 46F_47W_49P_50Q_52G_53A_54C_55F_67L_)?
**A.** 2.237

**Q.** What about the B03_logFC (Degron-ID 4291, SEQ ID NO 3745, 46F_47W_49P_50Q_52G_53A_54N_55F_67L_) of the same molecule?
**A.** 3.138

**Q.** What about the B03_logFC (Degron-ID 4294, SEQ ID NO 3766, 46F_47W_49P_50Q_52G_53A_54R_55F_67L_) of the same molecule?
**A.** 3.085

**Q.** What about the B03_logFC (Degron-ID 4295, SEQ ID NO 3940, 46F_47W_49P_50Q_52G_53A_54S_55F_67L) of the same molecule?
**A.** 2.778

**Q.** And the B03_logFC (Degron-ID 4303, SEQ ID NO 4295, 46F_47W_49P_50V_52G_53A_54E_55F_67L_)?
**A.** 2.231

**Q.** What about the B03_logFC (Degron-ID 4308, SEQ ID NO 3674, 46F_47W_49P_50V_52G_53A_54K_55F_67L_) of the same molecule?
**A.** 3.289

**Q.** What about the B03_logFC (Degron-ID 4309, SEQ ID NO 4247, 46F_47W_49P_50V_52G_53A_54L_55F_67L_) of the same molecule?
**A.** 2.302

**Q.** What about the B03_logFC (Degron-ID 4310, SEQ ID NO 3777, 46F_47W_49P_50V_52G_53A_54M_55F_67L_) of the same molecule?
**A.** 3.051

**Q.** And the B03_logFC (Degron-ID 4312, SEQ ID NO 3852, 46F_47W_49P_50V_52G_53A_54P_55F_67L)?
**A.** 2.918

**Q.** And the B03_logFC (Degron-ID 4317, SEQ ID NO 3810, 46F_47W_49P_50V_52G_53A_54V_55F_67L_)?
**A.** 2.991

**Q.** What about the B03_logFC (Degron-ID 4319, SEQ ID NO 3844, 46F_47W_49P_50V_52G_53A_54Y_55F_67L_) of the same molecule?
**A.** 2.932

**Q.** And the B03_logFC (Degron-ID 4320, SEQ ID NO 3698, 46F_47Y_49D_50I_52G_53A_54A_55F_67L_)?
**A.** 3.227

**Q.** And the B03_logFC (Degron-ID 4325, SEQ ID NO 4348, 46F_47Y_49D_50I_52G_53A_54G_55F_67L_)?
**A.** 2.126

**Q.** What about the B03_logFC (Degron-ID 4328, SEQ ID NO 3659, 46F_47Y_49D_50I_52G_53A_54K_55F_67L_) of the same molecule?
**A.** 3.324

**Q.** What about the B03_logFC (Degron-ID 4334, SEQ ID NO 3648, 46F_47Y_49D_50I_52G_53A_54R_55F_67L_) of the same molecule?
**A.** 3.351

**Q.** What about the B03_logFC (Degron-ID 4335, SEQ ID NO 3710, 46F_47Y_49D_50I_52G_53A_54S_55F_67L_) of the same molecule?
**A.** 3.202

**Q.** And the B03_logFC (Degron-ID 4336, SEQ ID NO 3860, 46F_47Y_49D_50I_52G_53A_54T_55F_67L)?
**A.** 2.907

**Q.** What about the B03_logFC (Degron-ID 4360, SEQ ID NO 3840, 46F_47Y_49D_50V_52G_53A_54A_55F_67L_) of the same molecule?
**A.** 2.941

**Q.** And the B03_logFC (Degron-ID 4361, SEQ ID NO 3863, 46F_47Y_49D_50V_52G_53A_54C_55F_67L)?
**A.** 2.899

**Q.** What about the B03_logFC (Degron-ID 4371, SEQ ID NO 3732, 46F_47Y_49D_50V_52G_53A_54N_55F_67L_) of the same molecule?
**A.** 3.152

**Q.** And the B03_logFC (Degron-ID 4373, SEQ ID NO 3693, 46F_47Y_49D_50V_52G_53A_54Q_55F_67L_)?
**A.** 3.236

**Q.** What about the B03_logFC (Degron-ID 4374, SEQ ID NO 3677, 46F_47Y_49D_50V_52G_53A_54R_55F_67L_) of the same molecule?
**A.** 3.284

**Q.** What about the B03_logFC (Degron-ID 4375, SEQ ID NO 3754, 46F_47Y_49D_50V_52G_53A_54S_55F_67L_) of the same molecule?
**A.** 3.118

**Q.** What about the B03_logFC (Degron-ID 4376, SEQ ID NO 3915, 46F_47Y_49D_50V_52G_53A_54T_55F_67L) of the same molecule?
**A.** 2.823

**Q.** What about the B03_logFC (Degron-ID 4383, SEQ ID NO 3683, 46F_47Y_49E_50I_52G_53A_54E_55F_67L_) of the same molecule?
**A.** 3.263

**Q.** What about the B03_logFC (Degron-ID 4384, SEQ ID NO 3681, 46F_47Y_49E_50I_52G_53A_54F_55F_67L_) of the same molecule?
**A.** 3.271

**Q.** What about the B03_logFC (Degron-ID 4385, SEQ ID NO 3718, 46F_47Y_49E_50I_52G_53A_54G_55F_67L_) of the same molecule?
**A.** 3.174

**Q.** What about the B03_logFC (Degron-ID 4398, SEQ ID NO 4409, 46F_47Y_49E_50I_52G_53A_54W_55F_67L_) of the same molecule?
**A.** 2.032
